Results: patent US20160347807A1, “TARGETING P53 AND ITS DNA-BINDING DOMAIN” (UNIVERSITY OF UTAH RESEARCH DOUNDATION, priority 2014, published 2016)

Test system: 1471.1 cells
Test: Mitochondrial colocalization of EGFP constructs with MitoTracker Red (PCC)
Format: cell-based, murine
Conditions: PCC of 0.6 or greater defines colocalization

Substance	colocalization with mitochondria (Pearson's correlation coefficient, PCC)
p53-XL: full length p53 with EGFP on the amino terminus and the MTS from Bcl-XL (XL) on the C-terminus	directs p53-XL to the mitochondria
p53-BakMTS: MTS from Bak fused to the C-terminus of EGFP-p53	0.75
